In US8058068B2, “Peptide-enhanced transfections” (Life Technologies Corporation, priority 1995, dated 2011):

Each substance was assayed on Human fibroblasts. Conditions: not given.
Assay type: cell-based
For “Sp-5-CO-GGYGPKKKRKVGGGGYGPKKKRKVGG (N-terminal spermine conjugate (Sp-5-CO)) [Sp-NLSNLS, the peptide NLSNLS conjugated to spermine]”, the “Sp-NLSNLS amount resulting in a plateau of enhanced activity” value was 2 to 20 µg.

The substances below were run on Human fibroblasts. Conditions: amount of peptide at peak activity.
Assay type: cell-based
With CGYGPKKKRKVGGGGRGDSPCG [G61934P NLSRGD] the “Peptide Amount (mg per 0.4 mg DNA)” value was 20 mg per 0.4 mg DNA. “GRGDSPCGGK16 (SSDDEATADSQHSTPPKKKRKVGG) [RGDK16]” was tested, and the “Peptide Amount (mg per 0.4 mg DNA)” value was 5 mg per 0.4 mg DNA. “GYGPKKKRKVGG [NLS, nuclear localization signal of SV40 large T antigen]” was tested, and the “Peptide Amount (mg per 0.4 mg DNA)” value was 20 mg per 0.4 mg DNA. For K16 (KKKKKKKKKKKKKKKKKKKK), the “Peptide Amount (mg per 0.4 mg DNA)” value was 0.5 mg per 0.4 mg DNA. In the case of “K16CGYGPKKKRKVGGGGRGDSP (KKKKKKKKKKKKKKKKGGCGYGPKKKRKVGGKFTIVF) [K16NLSRGD]”, the “Peptide Amount (mg per 0.4 mg DNA)” value is reported as 2 mg per 0.4 mg DNA. For “K16GGCGYGPKKKRKVGG [K16NLS (peak 1)] (KKKKKKKKKKKKKKKKKFTTIVFCGYGPKKKRKVGG)”, the “Peptide Amount (mg per 0.4 mg DNA)” value was 10 mg per 0.4 mg DNA. K16GGCGYGPKKKRKVGG [K16NLS (peak 2)] was tested, and the “Peptide Amount (mg per 0.4 mg DNA)” value was 0.5 mg per 0.4 mg DNA. K16GGRGDSPCG [K16RGD] was tested, and the “Peptide Amount (mg per 0.4 mg DNA)” value was 2 mg per 0.4 mg DNA. In the case of “Sp-5-CO-GCGYGPKKKRKVG [Opf-GG-2-CYS (peak 1)] (GLFEAIAEFIEGGWEGLIEGGGYGGGGGGPKKKRKVGG; N-terminal spermine conjugate)”, the “Peptide Amount (mg per 0.4 mg DNA)” value is reported as 10 mg per 0.4 mg DNA. In the case of “Sp-5-CO-GCGYGPKKKRKVG [Opf-GG-2-CYS (peak 2)] (N-terminal spermine conjugate)”, the “Peptide Amount (mg per 0.4 mg DNA)” value is reported as 20 mg per 0.4 mg DNA. Sp-5-CO-GGGGGYGPKKKRKVGG [Opf-GG-1] was tested, and the “Peptide Amount (mg per 0.4 mg DNA)” value was 6 mg per 0.4 mg DNA. “Sp-5-CO-GGYGPKKKRKVG [Opf-GG-2 (peak 1)]” was tested, and the “Peptide Amount (mg per 0.4 mg DNA)” value was 10 mg per 0.4 mg DNA. In the case of “Sp-5-CO-GGYGPKKKRKVG [Opf-GG-2 (peak 2)]”, the “Peptide Amount (mg per 0.4 mg DNA)” value is reported as 2 mg per 0.4 mg DNA. “Sp-5-CO-GGYGPKKKRKVGGGGYGPKKKRKVGG (N-terminal spermine conjugate (Sp-5-CO)) [Sp-NLSNLS, the peptide NLSNLS conjugated to spermine]” was tested, and the “Peptide Amount (mg per 0.4 mg DNA)” value was 4 mg per 0.4 mg DNA. “Sp-5-CO-GYGPKKKRKVGGGGGRGDMFGG [SpNLSRGD]” was tested, and the “Peptide Amount (mg per 0.4 mg DNA)” value was 20 mg per 0.4 mg DNA.

Each substance was assayed on NIH/3T3 cells. Conditions: amount of peptide at peak activity.
Assay type: cell-based
Procedure: Two versions of the Tat peptide were synthesized: one with the DNA-binding group carboxyspermine on the N-terminus and one without. The core TAT sequence employed was […] [SEQ ID NO:123]. The ability of the TAT peptide and the carboxyspermine-modified TAT peptide to enhance cationic lipid-mediated transfection was tested.
Transfection was performed in NIH/3T3 cells, in 24-well plates. Seeding density was 6×10^4 cells/well. For each condition, the standard PLUS protocol was used (see example 3) for complexing. All complexes were prepared in OptiMEM reduced serum media. Cells were harvested and assayed for β-galactosidase acivity in the soluble extracts by luminescent assay (see example 8). […] A clear enhancement is seen.
CGYGRKKRRQRRRG [TAT] was tested, and the “Peak peptide” value was 2.0 µg. “sp-TAT: Tat peptide CGYGRKKRRQRRRG with the DNA-binding group carboxyspermine on the N-terminus (N-terminal carboxyspermine)” was tested, and the “Peak peptide” value was 0.5 µg.
